Among the data in patent US20180305421A1 (SHIRE HUMAN GENETIC THERAPIES, published 2018) are binding values, retold here.

Common to all, as to assay: Biacore SPR
(SPR reads the build-up and loss of mass on a sensor chip optically.)

Experiment [1] deals with T1, BMP-7 (UniProt P18075 293-431).
T1 sequence (looked up): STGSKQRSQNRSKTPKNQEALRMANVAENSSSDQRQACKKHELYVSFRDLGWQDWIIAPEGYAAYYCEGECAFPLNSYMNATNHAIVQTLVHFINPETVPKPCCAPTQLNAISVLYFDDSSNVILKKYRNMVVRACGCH

For experiment [2], the target named is T2, BMP-6 (UniProt P22004 382-513, limits assumed).
T2 sequence (looked up): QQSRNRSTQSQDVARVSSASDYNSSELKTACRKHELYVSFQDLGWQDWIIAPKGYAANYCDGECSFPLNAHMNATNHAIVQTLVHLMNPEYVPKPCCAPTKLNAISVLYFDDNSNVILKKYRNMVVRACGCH

The target of experiment [3] is T3, myostatin (UniProt O14793 267-375).
T3 sequence (looked up): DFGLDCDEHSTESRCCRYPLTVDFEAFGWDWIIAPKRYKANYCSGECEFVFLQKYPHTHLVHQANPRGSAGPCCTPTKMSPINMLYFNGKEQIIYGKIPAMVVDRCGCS

The target of experiment [4] is T4, BMP-10 (UniProt O95393 317-424).
T4 sequence (looked up): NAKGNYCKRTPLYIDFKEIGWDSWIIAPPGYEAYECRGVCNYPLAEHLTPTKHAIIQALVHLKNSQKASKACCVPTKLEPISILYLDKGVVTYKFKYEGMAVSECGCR

The target of experiment [5] is T5, BMP-9 (UniProt Q9UK05 320-429).
T5 sequence (looked up): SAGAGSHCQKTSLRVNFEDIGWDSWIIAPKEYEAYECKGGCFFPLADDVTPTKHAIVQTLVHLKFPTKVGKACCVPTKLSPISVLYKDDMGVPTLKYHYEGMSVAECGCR

The target of experiment [6] is T6, BMP-4 (UniProt P12644 293-408).
T6 sequence (looked up): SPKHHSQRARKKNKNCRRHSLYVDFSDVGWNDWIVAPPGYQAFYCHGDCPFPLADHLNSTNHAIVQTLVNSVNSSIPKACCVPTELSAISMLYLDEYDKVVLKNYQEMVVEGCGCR

Experiment [7] deals with T7, activin (UniProt P08476 311-426).
T7 sequence (looked up): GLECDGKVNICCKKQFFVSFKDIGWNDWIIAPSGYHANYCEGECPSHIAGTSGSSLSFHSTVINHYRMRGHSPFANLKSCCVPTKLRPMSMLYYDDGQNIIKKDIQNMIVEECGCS

These are yes or no findings as the source states them, for the method shown. Some entries that bind do so weakly or less than the wild type.

B1: sActRIIB-hFc (Fc fusion, UniProt Q13705 25-134, looked up)
chain: ETRECIYYNANWELERTNQSGLERCEGEQDKRLHCYASWRNSSGTIELVKKGCWLDDFNCYDRQECVATEENPQVYFCCCEGNFCNERFTHLPEAGGPEVTYEPPPTAPT
notes: Control protein in the Biacore assay; also called sActRTIB-hFc; sActRIIB-Fc; not shown: human Fc
Consider B1, for which the binding result in experiment [1], in experiment [2], in experiment [3], in experiment [4], in experiment [5] and in experiment [6] was “binds” throughout.

B2: follistatin-Fc human chimera FS315-hFc (Sino Biological Inc. Catalog Number 10685-H02H) (Fc fusion)
chain: GNCWLRQAKNGRCQVLYKTELSKEECCSTGRLSTSWTEEDVNDNTLFKWMIFNGGAPNCIPCKETCENVDCGPGKKCRMNKKNKPRCVCAPDCSNITWKGPVCGLDGKTYRNECALLKARCKEQPELEVQYQGRCKKTCRDVFCPGSSTCVVDQTNNAYCVTCNRICPEPASSEQYLCGNDGVTYSSACHLRKATCLLGRSIGLAYEGKCIKAKSCEDIQCTGGKKCLWDFKVGRGRCSLCDELCPDSKSDEPVCASDNATYASECAMKEAACSSGVLLEVKHSGSCNSISEDTEEEEEDEDQDYSFPISSILEWALEVLFQGP
notes: Bought fusion protein; also called Sino Biological FS315-hFc; not shown: human Fc of the bought product
Consider B2, for which, in experiment [7], the binding entry was “binds”.

B3: FS315 (R&D Systems) (other)
chain: GNCWLRQAKNGRCQVLYKTELSKEECCSTGRLSTSWTEEDVNDNTLFKWMIFNGGAPNCIPCKETCENVDCGPGKKCRMNKKNKPRCVCAPDCSNITWKGPVCGLDGKTYRNECALLKARCKEQPELEVQYQGRCKKTCRDVFCPGSSTCVVDQTNNAYCVTCNRICPEPASSEQYLCGNDGVTYSSACHLRKATCLLGRSIGLAYEGKCIKAKSCEDIQCTGGKKCLWDFKVGRGRCSLCDELCPDSKSDEPVCASDNATYASECAMKEAACSSGVLLEVKHSGSCNSISEDTEEEEEDEDQDYSFPISSILEW
Regarding B3, in experiment [7], the binding entry is on record as “binds”.
